In patent US20070281326A1 (QUARK PHARMACEUTICALS, published 2007):
These are yes or no findings as the source states them, for the method shown. For some of these results: In cells and extracts the contact can be indirect. Some entries that bind do so weakly or less than the wild type. For some of these results: Where a sequence is shown, tags or fusion partners need not be part of it.

By UniProt entry, the sequences of proteins in these tests, tags left out. Where a name states a change or a piece, a line headed by the entry shows the natural chain unless it says otherwise.
UniProt P49815: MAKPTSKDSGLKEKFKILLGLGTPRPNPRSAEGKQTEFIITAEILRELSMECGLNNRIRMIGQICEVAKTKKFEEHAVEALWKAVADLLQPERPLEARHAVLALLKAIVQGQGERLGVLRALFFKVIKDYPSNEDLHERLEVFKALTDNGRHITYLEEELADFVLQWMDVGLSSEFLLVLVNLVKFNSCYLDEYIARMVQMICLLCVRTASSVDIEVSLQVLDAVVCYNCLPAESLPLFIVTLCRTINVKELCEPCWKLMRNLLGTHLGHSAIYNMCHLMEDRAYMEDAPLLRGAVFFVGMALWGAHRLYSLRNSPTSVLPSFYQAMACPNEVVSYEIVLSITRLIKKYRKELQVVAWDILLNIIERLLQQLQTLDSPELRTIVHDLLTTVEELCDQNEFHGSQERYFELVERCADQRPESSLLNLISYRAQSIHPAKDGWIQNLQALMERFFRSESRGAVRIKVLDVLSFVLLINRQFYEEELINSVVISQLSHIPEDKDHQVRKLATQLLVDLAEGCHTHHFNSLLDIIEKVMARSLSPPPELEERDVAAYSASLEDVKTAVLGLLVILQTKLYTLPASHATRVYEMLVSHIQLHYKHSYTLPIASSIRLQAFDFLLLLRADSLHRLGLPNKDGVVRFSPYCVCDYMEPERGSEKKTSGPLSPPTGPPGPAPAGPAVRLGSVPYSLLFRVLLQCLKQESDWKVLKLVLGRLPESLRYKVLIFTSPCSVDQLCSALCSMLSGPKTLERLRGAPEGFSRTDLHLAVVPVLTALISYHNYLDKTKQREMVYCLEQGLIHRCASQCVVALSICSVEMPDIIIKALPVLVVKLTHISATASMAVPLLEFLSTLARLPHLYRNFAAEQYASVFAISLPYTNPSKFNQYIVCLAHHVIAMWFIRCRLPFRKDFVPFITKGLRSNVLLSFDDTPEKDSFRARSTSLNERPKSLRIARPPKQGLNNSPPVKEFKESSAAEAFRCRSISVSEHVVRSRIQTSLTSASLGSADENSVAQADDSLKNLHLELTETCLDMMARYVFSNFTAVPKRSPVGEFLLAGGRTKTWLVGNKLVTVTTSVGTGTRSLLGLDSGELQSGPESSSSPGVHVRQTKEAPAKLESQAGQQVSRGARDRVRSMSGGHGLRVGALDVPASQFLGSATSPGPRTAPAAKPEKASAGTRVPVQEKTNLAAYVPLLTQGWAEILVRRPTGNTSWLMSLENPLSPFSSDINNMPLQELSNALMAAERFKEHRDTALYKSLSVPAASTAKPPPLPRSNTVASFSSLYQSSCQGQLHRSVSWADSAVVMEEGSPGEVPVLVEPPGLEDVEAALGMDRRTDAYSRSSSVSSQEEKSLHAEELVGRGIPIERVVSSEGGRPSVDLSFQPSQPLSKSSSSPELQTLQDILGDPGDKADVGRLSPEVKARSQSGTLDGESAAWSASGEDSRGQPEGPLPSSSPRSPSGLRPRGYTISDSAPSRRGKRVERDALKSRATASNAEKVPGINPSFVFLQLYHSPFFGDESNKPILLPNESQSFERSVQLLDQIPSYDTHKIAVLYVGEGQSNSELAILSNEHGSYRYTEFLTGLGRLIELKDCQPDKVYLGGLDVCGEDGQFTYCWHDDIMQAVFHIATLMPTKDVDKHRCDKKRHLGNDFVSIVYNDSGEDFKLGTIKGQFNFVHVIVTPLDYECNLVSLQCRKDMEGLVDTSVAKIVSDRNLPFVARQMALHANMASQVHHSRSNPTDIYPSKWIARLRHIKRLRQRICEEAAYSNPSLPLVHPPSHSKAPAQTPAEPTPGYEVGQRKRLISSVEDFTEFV

What was measured:
[1] = biological target: T1, HA-SV5-full length hRTP801 (human), Q9NX09; test: HTRF on 293T HEK cytosolic extract (FIG. 23); details: remark: other sources report otherwise
T1 chain: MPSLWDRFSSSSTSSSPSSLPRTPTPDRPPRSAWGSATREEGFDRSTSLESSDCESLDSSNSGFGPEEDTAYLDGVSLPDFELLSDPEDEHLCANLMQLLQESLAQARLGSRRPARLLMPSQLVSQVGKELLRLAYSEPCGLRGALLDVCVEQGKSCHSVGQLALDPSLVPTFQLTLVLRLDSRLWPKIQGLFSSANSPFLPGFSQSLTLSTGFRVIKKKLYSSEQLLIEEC

[2] = biological target: T1, HA-SV5-full length hRTP801 (human), …; test: co-IP with M2 anti-FLAG resin from CoCl2-treated 293T HEK extract (FIG. 21); details: remark: other sources report otherwise
[3] = biological target: T1, HA-SV5-full length hRTP801 (human), …; test: co-IP with anti-FLAG resin from 293T extract (FIG. 21); details: remark: other sources report otherwise
[4] = biological target: T2, TSC2 (human, UniProt P49815 1-1807, limits assumed); test: pull-down from extract
T2 construct: TSC2 without a stated tag, endogenous or expressed from transfected cDNA in 293T cell extracts; also called tuberin; endogenous TSC2

[5] = biological target: T2, TSC2; test: pull-down from cell extract with 6XHis baits (FIG. 13)
[6] = biological target: T2, TSC2; test: co-IP with anti-FLAG from 293T extract
[7] = biological target: T3, hRTP801 (human), Q9NX09; test: summary of Example 6; details: remark: other sources report otherwise
T3 chain: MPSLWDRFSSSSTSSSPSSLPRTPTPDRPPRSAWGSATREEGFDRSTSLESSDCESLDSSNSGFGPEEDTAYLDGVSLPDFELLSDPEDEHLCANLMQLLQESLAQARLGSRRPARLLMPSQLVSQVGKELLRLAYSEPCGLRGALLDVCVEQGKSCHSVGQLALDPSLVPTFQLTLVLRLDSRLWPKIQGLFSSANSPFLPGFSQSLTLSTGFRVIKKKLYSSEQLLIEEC

[8] = biological target: T3, hRTP801 (human), Q9NX09; test: bacterial two-hybrid system; details: remark: other sources report otherwise

B1: FLAG-hRTP801, Q9NX09 1-232 (protein, not shown: small tags and cut ends)
chain: MPSLWDRFSSSSTSSSPSSLPRTPTPDRPPRSAWGSATREEGFDRSTSLESSDCESLDSSNSGFGPEEDTAYLDGVSLPDFELLSDPEDEHLCANLMQLLQESLAQARLGSRRPARLLMPSQLVSQVGKELLRLAYSEPCGLRGALLDVCVEQGKSCHSVGQLALDPSLVPTFQLTLVLRLDSRLWPKIQGLFSSANSPFLPGFSQSLTLSTGFRVIKKKLYSSEQLLIEEC
In the case of B1, the binding [1] is reported as “binds”, the binding [2] is reported as “binds” and the binding [3] is reported as “binds”.

B2: 6XHis-hRTP801 (protein, not shown: small tags and cut ends)
chain: MPSLWDRFSSSSTSSSPSSLPRTPTPDRPPRSAWGSATREEGFDRSTSLESSDCESLDSSNSGFGPEEDTAYLDGVSLPDFELLSDPEDEHLCANLMQLLQESLAQARLGSRRPARLLMPSQLVSQVGKELLRLAYSEPCGLRGALLDVCVEQGKSCHSVGQLALDPSLVPTFQLTLVLRLDSRLWPKIQGLFSSANSPFLPGFSQSLTLSTGFRVIKKKLYSSEQLLIEEC
B2 was tested, and the binding [4] was “binds” and the binding [5] was “binds”.

B3: 6XHis-hRTP801 C-fragment (protein, not shown: small tags and cut ends)
chain: DEHLCANLMQLLQESLAQARLGSRRPARLLMPSQLVSQVGKELLRLAYSEPCGLRGALLDVCVEQGKSCHSVGQLALDPSLVPTFQLTLVLRLDSRLWPKIQGLFSSANSPFLPGFSQSLTLSTGFRVIKKKLYSSEQLLIEEC
B3 was tested, and the binding [4] was “binds” and the binding [5] was “binds”.

B4: FLAG-hRTP801-L (protein, human, UniProt Q96D03 1-193, looked up, not shown: small tags and cut ends)
chain: MVATGSLSSKNPASISELLDCGYHPESLLSDFDYWDYVVPEPNLNEVIFEESTCQNLVKMLENCLSKSKQTKLGCSKVLVPEKLTQRIAQDVLRLSSTEPCGLRGCVMHVNLEIENVCKKLDRIVCDSSVVPTFELTLVFKQENCSWTSFRDFFFSRGRFSSGFRRTLILSSGFRLVKKKLYSLIGTTVIEGS
For B4, the binding [6] was “binds”.

B5: hRTP801, Q9NX09 1-232 (protein)
chain: MPSLWDRFSSSSTSSSPSSLPRTPTPDRPPRSAWGSATREEGFDRSTSLESSDCESLDSSNSGFGPEEDTAYLDGVSLPDFELLSDPEDEHLCANLMQLLQESLAQARLGSRRPARLLMPSQLVSQVGKELLRLAYSEPCGLRGALLDVCVEQGKSCHSVGQLALDPSLVPTFQLTLVLRLDSRLWPKIQGLFSSANSPFLPGFSQSLTLSTGFRVIKKKLYSSEQLLIEEC
In the case of B5, the binding [7] is reported as “binds” and the binding [8] is reported as “binds”.
